Some entries share one result that the patent states for a list of compounds.
Legend:
[1] = test system: Capan-1 (K-Ras G12V); assay: CellTiter-Glo cell viability assay, Capan-1; type: cell-based, human; conditions: 5-day treatment, Capan-1 versus A375
[2] = target: K-RasG12V (Homo sapiens, UniProt P01116+P62937, G12V); assay: Disruption of BRAF RBD interaction with K-Ras (TR-FRET / MOA assay), K-RasG12V; type: biochemical; conditions: TR-FRET with cyclophilin A and GST-BRAF RBD, read-out: IC50 with respect to K-RasG12V (disruption of BRAF RBD interaction)

By UniProt entry, the sequences of proteins in these tests, tags left out. Where a name states a change or a piece, a line headed by the entry shows the natural chain unless it says otherwise. Residues count along the entry.
UniProt P01116, 1-188 isoform P01116-2 G12V: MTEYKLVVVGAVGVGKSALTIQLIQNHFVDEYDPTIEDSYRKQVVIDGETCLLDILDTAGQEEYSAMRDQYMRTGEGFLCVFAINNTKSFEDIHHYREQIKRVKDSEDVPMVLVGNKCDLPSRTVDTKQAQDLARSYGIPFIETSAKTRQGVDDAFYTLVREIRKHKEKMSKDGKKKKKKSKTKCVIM
UniProt P62937, whole entry: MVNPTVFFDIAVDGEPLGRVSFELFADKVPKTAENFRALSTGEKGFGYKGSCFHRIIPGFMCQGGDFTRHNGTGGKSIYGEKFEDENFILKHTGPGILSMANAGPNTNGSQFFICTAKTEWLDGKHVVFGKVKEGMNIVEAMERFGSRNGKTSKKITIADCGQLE

SMILES | decrease in cell viability with respect to KRAS G12V (Capan-1) versus wild-type KRAS (A375) [1] | IC50 [2] [nM]
CO[C@@H](C)c1ncc(C2CCN(C)CC2)cc1-c1c2c3cc(ccc3n1CCOC1CCOCC1)-c1csc(n1)[C@@H](N1CC(C)(OC)C1)[C@H](NC(=O)[C@H]1OC[C@@H]1C)C(=O)N1CCC[C@H](N1)C(=O)OCC(C)(C)C2 (racemic) [Example A212] | greater decrease in cell viability | < 1000
CO[C@@H](C)c1ncc(N2CCN(C3CC3)CC2)cc1-c1c2c3cc(ccc3n1CCOC1CCOCC1)-c1csc(n1)[C@@H](N1CC(C)(C)C1)[C@H](NC(=O)[C@H]1[C@H](C)[C@@H]1C)C(=O)N1CCC[C@H](N1)C(=O)OCC(C)(C)C2 (racemic) [Example A213] | greater decrease in cell viability | < 1000
CO[C@@H](C)c1ncc(C2CCN(C3CC3)CC2)cc1-c1c2c3cc(ccc3n1CCO[C@H]1CCOC(C)(C)C1)-c1csc(n1)[C@@H](N1CC3(CCCOC3)C1)[C@H](NC(=O)C13CC(C1)[C@H](C)O3)C(=O)N1CCC[C@H](N1)C(=O)OCC(C)(C)C2 (racemic) [Example A214] | greater decrease in cell viability | < 1000
CO[C@@H](C)c1ncc(C2CCN(C3CC3)CC2)cc1-c1c2c3cc(ccc3n1CCOC1CCOCC1)-c1csc(n1)[C@@H](N1CC3(CCCOC3)C1)[C@H](NC(=O)C13CC(C1)[C@H](C)O3)C(=O)N1CCC[C@H](N1)C(=O)OCC(C)(C)C2 (racemic) [Example A215] | greater decrease in cell viability | < 1000
CO[C@@H](C)c1ncc(C2CCN(C3CC3)CC2)cc1-c1c2c3cc(ccc3n1CCO[C@H]1CCOC(C)(C)C1)-c1csc(n1)[C@@H](N1CC3CC1C3)[C@H](NC(=O)C13CC(C)(C1)[C@H](C)O3)C(=O)N1N[C@H](C(=O)OCC(C)(C)C2)C2CC1C2 (racemic) [Example A218] | greater decrease in cell viability | < 1000
[2H]C([2H])([2H])[C@H]1OC2(C(=O)N[C@@H]3C(=O)N4CCC[C@H](N4)C(=O)OCC(C)(C)Cc4c(-c5cc(C6CCN(C7CC7)CC6)cnc5[C@H](C)OC)n(CCOC5CCOCC5)c5ccc(cc45)-c4csc(n4)[C@H]3N3CC4(COC4)C3)CC1(C)C2 (racemic) [Example A219] | greater decrease in cell viability | < 1000
[2H]C([2H])([2H])[C@@H]1OC2(C(=O)N[C@@H]3C(=O)N4CCC[C@H](N4)C(=O)OCC(C)(C)Cc4c(-c5cc(C6CCN(C7CC7)CC6)cnc5[C@H](C)OC)n(CCOC5CCOCC5)c5ccc(cc45)-c4csc(n4)[C@H]3N3CC4(COC4)C3)CC1C2 (racemic) [Example A221] | greater decrease in cell viability | < 1000
CO[C@@H](C)c1ncc(N2CCN(C3CC3)CC2)cc1-c1c2c3cc(ccc3n1CCO[C@H]1CCOC(C)(C)C1)-c1coc(n1)[C@@H](N1CC3(COC3)C1)[C@H](NC(=O)C13CC(C1)[C@H](C)O3)C(=O)N1CCC[C@H](N1)C(=O)OCC(C)(C)C2 (racemic) [Example A222] | greater decrease in cell viability | < 1000
CO[C@@H](C)c1ncc(N2CCN(C3CC3)CC2)cc1-c1c2c3cc(ccc3n1CCO[C@H]1CCOC(C)(C)C1)-c1coc(n1)[C@@H](N1CC3(COC3)C1)[C@H](NC(=O)[C@@H]1[C@@H](C)[C@H]1c1ccncn1)C(=O)N1CCC[C@H](N1)C(=O)OCC(C)(C)C2 (racemic) [Example A223] | greater decrease in cell viability | < 1000
CO[C@@H](C)c1ncc(N2CCN(C3CC3)CC2)cc1-c1c2c3cc(ccc3n1CCO[C@H]1CCOC(C)(C)C1)-c1coc(n1)[C@@H](N1CC3(COC3)C1)[C@H](NC(=O)[C@@H]1[C@@H](C)[C@H]1c1cocn1)C(=O)N1CCC[C@H](N1)C(=O)OCC(C)(C)C2 (racemic) [Example A224] | greater decrease in cell viability | < 1000
CO[C@@H](C)c1ncccc1-c1c2c3cc(ccc3n1C1COC1)-c1csc(n1)[C@@H](N1CC3(COC3)C1)[C@H](NC(=O)C13CC(C)(C1)[C@@H](C)O3)C(=O)N1N[C@H](C(=O)OCC(C)(C)C2)C2CC1C2 (racemic) [Example A225] | greater decrease in cell viability | < 1000
CO[C@@H](C)c1ncc(C2CCN(C3CC3)CC2)cc1-c1c2c3cc(ccc3n1CCOC1CCOCC1)-c1csc(n1)[C@@H](N1CC3(COC3)C1)[C@H](NC(=O)[C@@H]1C[C@@H](C)O1)C(=O)N1CCC[C@H](N1)C(=O)OCC(C)(C)C2 (racemic) [Example A226] | greater decrease in cell viability | < 1000
CO[C@@H](C)c1ncc(C2CCN(C3CC3)CC2)cc1-c1c2c3cc(ccc3n1CCOC1CCOCC1)-c1csc(n1)[C@@H](N1CC3(COC3)C1)[C@H](NC(=O)[C@H]1C[C@@H](C)O1)C(=O)N1CCC[C@H](N1)C(=O)OCC(C)(C)C2 (racemic) [Example A227] | greater decrease in cell viability | < 1000
CO[C@@H](C)c1ncc(N2CCN(C3CC3)CC2)cc1-c1c2c3cc(ccc3n1CCOC1CCOCC1)-c1csc(n1)[C@@H](N1CC3(COC3)C1)[C@H](NC(=O)[C@@H]1C[C@@H](C)O1)C(=O)N1CCC[C@H](N1)C(=O)OCC(C)(C)C2 (racemic) [Example A228] | greater decrease in cell viability | < 1000
CO[C@@H](C)c1ncc(N2CCN(C3CC3)CC2)cc1-c1c2c3cc(ccc3n1CCOC1CCOCC1)-c1csc(n1)[C@@H](N1CC3(COC3)C1)[C@H](NC(=O)[C@H]1C[C@@H](C)O1)C(=O)N1CCC[C@H](N1)C(=O)OCC(C)(C)C2 (racemic) [Example A229] | greater decrease in cell viability | < 1000
CO[C@@H](C)c1ncccc1-c1c2c3cc(ccc3n1CCOC1CCOCC1)-c1csc(n1)[C@@H](N1CC3(CCO3)C1)[C@H](NC(=O)C13CC(C)(C1)[C@H](C)O3)C(=O)N1CCC[C@H](N1)C(=O)OCC(C)(C)C2 (racemic) [Example A231] | greater decrease in cell viability | < 1000
CO[C@@H](C)c1ncccc1-c1c2c3cc(ccc3n1C1COC1)-c1csc(n1)[C@@H](N1CC3(CCCOC3)C1)[C@H](NC(=O)C1OC[C@@H]1C)C(=O)N1CCC[C@H](N1)C(=O)OCC(C)(C)C2 (mixture of isomers) [Example A233] | greater decrease in cell viability | < 1000
CO[C@@H](C)c1ncccc1-c1c2c3cc(ccc3n1CCOC1CCOCC1)-c1csc(n1)[C@@H](N1CC(C)(OC)C1)[C@H](NC(=O)[C@@H]1OC[C@@H]1C)C(=O)N1CCC[C@H](N1)C(=O)OCC(C)(C)C2 (racemic) [Example A235] | greater decrease in cell viability | < 1000

Source: patent US20250154171A1, “RAS INHIBITORS” (Revolution Medicines, Inc., priority 2023, published 2025)
